Results reported in the supplement of paper PMC10849652.
This is one part of the list.

Sequences of proteins named here, by UniProt entry; tags and fusion partners are left off. A change or cut given only in a name is not applied to a line headed by its entry.
UniProt Q9Y2Y0: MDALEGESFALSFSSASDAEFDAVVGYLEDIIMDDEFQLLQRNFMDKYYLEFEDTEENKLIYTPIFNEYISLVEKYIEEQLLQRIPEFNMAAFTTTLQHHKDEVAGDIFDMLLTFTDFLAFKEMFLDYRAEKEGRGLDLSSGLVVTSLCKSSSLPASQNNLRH
UniProt Q4LE39: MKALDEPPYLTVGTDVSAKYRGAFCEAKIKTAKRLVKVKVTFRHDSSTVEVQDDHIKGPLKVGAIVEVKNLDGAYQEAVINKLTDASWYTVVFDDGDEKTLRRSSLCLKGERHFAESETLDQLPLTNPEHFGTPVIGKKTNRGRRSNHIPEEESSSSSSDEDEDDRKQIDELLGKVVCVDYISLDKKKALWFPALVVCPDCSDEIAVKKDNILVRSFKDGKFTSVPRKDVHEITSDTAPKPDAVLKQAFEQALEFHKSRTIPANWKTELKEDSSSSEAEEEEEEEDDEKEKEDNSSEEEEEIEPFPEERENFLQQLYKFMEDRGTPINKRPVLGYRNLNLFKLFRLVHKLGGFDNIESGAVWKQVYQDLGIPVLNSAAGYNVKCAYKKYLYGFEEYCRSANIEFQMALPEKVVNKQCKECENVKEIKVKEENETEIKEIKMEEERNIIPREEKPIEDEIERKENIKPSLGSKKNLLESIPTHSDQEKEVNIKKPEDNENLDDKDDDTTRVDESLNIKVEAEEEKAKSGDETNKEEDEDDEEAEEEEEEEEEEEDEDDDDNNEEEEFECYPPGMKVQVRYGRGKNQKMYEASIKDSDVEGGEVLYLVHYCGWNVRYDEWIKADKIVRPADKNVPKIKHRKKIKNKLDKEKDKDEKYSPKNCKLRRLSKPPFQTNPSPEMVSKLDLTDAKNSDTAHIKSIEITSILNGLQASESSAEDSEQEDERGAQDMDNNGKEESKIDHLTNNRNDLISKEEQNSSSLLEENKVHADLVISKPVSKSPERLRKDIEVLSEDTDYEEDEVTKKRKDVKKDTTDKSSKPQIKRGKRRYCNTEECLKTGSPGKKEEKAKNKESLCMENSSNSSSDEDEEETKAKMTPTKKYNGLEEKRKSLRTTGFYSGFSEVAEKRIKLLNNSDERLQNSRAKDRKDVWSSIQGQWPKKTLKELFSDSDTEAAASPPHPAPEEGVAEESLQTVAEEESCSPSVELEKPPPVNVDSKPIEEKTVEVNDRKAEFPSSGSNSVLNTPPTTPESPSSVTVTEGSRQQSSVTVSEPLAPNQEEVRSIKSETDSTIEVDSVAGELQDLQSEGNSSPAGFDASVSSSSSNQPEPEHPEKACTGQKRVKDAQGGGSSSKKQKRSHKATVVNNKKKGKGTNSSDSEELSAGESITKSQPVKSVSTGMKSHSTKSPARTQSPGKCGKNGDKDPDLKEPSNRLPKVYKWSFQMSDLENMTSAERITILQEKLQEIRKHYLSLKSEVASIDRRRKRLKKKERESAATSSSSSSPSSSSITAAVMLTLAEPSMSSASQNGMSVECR
UniProt Q13795: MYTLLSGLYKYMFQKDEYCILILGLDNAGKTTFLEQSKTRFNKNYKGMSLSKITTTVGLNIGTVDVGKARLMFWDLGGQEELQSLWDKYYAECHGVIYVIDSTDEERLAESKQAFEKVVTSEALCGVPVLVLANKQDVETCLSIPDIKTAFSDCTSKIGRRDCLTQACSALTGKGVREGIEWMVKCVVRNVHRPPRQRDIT
UniProt Q6NXE6: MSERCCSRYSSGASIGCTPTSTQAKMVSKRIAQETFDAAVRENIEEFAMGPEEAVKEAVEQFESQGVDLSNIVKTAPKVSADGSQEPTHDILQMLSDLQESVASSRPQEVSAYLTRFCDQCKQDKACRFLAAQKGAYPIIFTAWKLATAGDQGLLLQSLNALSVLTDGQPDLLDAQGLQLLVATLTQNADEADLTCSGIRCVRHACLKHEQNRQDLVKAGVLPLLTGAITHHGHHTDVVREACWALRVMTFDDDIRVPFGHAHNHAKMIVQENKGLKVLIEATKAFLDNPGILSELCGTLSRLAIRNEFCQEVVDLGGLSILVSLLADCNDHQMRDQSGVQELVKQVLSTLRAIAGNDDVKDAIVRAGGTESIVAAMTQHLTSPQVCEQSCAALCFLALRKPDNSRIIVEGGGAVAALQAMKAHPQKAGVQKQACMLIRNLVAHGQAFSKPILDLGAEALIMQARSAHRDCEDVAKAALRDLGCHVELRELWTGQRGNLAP
UniProt P15289: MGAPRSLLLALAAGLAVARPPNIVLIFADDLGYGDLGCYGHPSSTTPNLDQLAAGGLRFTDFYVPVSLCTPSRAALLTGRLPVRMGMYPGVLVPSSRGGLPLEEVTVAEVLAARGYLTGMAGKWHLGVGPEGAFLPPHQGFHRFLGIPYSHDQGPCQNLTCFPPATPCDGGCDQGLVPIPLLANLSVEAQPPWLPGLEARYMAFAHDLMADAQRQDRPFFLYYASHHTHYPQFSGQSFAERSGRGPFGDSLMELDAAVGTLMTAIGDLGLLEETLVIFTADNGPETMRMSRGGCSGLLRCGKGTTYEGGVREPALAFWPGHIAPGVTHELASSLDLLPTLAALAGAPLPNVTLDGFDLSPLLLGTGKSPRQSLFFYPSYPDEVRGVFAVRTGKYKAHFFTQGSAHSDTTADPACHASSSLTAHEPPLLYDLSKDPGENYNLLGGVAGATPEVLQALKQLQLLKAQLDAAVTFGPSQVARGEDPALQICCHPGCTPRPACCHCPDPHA
UniProt O43299: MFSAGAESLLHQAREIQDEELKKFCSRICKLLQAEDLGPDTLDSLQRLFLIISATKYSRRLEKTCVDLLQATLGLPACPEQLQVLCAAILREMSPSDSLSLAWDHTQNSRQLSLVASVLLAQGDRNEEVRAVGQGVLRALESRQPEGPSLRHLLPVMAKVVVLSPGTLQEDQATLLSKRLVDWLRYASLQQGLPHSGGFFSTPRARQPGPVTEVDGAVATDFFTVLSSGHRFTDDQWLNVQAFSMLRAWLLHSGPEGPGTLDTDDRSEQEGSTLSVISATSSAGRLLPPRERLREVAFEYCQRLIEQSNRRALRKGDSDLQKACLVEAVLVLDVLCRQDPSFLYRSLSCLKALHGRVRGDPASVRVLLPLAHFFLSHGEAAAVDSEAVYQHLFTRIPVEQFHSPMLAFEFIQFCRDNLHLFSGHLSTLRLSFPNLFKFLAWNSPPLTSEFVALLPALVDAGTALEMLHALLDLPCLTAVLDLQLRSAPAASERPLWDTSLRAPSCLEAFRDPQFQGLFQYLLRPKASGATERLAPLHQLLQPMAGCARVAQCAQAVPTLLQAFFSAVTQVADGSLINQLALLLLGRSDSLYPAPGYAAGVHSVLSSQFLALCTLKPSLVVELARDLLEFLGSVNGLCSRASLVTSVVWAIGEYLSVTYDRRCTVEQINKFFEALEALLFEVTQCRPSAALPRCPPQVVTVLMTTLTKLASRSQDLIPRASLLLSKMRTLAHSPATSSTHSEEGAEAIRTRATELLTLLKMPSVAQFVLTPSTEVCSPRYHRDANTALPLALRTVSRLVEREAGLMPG
UniProt Q5T5U3: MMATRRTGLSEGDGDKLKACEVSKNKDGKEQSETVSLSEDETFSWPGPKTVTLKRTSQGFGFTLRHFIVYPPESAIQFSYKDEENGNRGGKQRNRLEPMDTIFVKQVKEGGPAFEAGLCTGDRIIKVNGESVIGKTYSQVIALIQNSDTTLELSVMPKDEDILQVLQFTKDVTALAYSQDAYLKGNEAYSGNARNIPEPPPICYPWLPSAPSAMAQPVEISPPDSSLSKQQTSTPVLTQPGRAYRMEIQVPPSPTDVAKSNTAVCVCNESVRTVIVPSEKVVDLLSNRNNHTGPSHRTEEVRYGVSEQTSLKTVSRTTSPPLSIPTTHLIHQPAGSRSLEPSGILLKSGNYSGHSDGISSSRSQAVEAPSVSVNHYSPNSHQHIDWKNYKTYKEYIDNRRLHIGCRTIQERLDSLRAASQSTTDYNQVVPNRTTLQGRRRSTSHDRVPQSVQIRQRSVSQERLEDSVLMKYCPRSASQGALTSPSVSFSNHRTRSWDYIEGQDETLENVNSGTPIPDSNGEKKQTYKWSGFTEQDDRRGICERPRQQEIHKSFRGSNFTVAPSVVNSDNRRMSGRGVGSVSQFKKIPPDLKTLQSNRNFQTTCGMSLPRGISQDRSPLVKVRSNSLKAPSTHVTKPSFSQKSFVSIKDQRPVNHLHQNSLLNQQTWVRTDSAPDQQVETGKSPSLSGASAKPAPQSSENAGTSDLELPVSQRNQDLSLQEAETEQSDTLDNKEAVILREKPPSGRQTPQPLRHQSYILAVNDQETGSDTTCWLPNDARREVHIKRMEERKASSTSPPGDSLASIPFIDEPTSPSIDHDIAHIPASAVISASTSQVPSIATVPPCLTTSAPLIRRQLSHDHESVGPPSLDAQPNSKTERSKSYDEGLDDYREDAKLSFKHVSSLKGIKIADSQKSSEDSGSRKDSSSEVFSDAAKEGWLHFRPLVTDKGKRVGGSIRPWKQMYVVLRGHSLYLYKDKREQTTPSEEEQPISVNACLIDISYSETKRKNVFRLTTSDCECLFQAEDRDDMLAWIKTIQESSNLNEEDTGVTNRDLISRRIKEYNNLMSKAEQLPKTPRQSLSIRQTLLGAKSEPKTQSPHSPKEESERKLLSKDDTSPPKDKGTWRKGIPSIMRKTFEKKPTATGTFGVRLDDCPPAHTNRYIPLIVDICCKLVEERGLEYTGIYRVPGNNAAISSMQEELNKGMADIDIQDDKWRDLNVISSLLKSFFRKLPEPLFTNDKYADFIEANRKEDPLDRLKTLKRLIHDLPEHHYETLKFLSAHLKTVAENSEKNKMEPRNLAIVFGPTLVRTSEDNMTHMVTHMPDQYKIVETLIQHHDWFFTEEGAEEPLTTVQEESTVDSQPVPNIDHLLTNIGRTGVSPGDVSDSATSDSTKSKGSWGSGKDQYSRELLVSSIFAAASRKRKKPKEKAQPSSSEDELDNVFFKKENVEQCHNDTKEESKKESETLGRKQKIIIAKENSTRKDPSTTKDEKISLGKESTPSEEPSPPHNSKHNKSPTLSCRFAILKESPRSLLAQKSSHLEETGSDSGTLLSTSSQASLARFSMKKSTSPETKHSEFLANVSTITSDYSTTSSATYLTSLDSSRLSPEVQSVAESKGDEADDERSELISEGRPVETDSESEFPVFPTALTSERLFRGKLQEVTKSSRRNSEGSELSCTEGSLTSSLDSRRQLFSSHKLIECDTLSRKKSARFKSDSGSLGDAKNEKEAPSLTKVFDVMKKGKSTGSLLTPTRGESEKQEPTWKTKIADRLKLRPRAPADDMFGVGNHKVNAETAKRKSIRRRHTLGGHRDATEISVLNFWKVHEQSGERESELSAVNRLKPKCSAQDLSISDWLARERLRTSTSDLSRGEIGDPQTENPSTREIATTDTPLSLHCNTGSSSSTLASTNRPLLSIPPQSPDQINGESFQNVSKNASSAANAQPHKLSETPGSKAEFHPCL
UniProt Q8IUR7, whole entry, looked up: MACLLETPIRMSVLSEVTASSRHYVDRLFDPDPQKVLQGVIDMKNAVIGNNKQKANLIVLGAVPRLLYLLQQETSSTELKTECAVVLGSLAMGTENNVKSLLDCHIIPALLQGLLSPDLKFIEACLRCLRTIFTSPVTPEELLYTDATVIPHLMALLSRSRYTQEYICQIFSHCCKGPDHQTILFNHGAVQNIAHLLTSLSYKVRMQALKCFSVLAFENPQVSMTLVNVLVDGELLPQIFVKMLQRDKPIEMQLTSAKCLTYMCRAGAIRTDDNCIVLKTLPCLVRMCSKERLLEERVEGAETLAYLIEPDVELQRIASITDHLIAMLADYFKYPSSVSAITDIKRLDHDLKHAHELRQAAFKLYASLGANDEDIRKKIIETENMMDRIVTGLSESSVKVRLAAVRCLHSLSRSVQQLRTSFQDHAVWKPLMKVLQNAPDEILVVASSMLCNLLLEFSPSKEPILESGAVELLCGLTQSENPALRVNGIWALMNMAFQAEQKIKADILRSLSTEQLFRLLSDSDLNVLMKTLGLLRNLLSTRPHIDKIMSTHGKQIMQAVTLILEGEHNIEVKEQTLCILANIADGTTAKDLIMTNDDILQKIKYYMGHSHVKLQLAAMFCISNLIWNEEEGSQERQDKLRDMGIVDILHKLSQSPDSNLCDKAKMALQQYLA

Columns and labels:
Experiment in all cases: log2 fold change, soluble protein after heating vs DMSO (PISA); higher = thermal stabilisation; K562 lysate, 10 uM; active = over 0.2 and 3.5 SD of the protein, either way, in both replicates (recomputed)
alvocidib = compound: CN1CC[C@H](c2c(O)cc(O)c3c(=O)cc(-c4ccccc4Cl)oc23)[C@H](O)C1 [alvocidib]
Outline: (§1)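 The values are log-two fold changes in thermal stability compared with solvent controls and come from duplicates. They were obtained by TMTpro 16plex LC-MS/MS, with channel sums equalised, on the supernatant after 21,000xg for 90 min. That supernatant came from crude K562 extract at 1 mg/mL protein treated with 10 μM compound for 30 min, heated for 3 min across 48°C-58°C, pooled and brought to 0.5% NP-40 at 4°C.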

Tubastatin A = compound: CN1CCc2c(c3ccccc3n2Cc2ccc(C(=O)NO)cc2)C1 [Tubastatin A]
Outline: as §1

[1] = compound: CNC(=O)C1=CC=CC=C1NC2=NC(=NC=C2Cl)NC3=C(C=C(C=C3)N4CCOCC4)OC
Outline: as §1

defactinib = compound: CNC(=O)c1ccc(Nc2ncc(C(F)(F)F)c(NCc3nccnc3N(C)S(C)(=O)=O)n2)cc1 [defactinib]
Outline: as §1

[2] = compound: CNc1nc(-c2ccc3c(N)n[nH]c3c2)cc(N2C[C@@H](C(=O)NC3CCCCC3)CC[C@H]2C)n1
Outline: as §1

encorafenib = compound: COC(=O)N[C@@H](C)CNc1nccc(-c2cn(C(C)C)nc2-c2cc(Cl)cc(NS(C)(=O)=O)c2F)n1 [encorafenib]
Outline: as §1

[3] = compound: COC(=O)[C@H](CCSC)NC(=O)C1=C(C=C(C=C1)NC[C@H](CS)N)C2=CC=CC=C2
Outline: as §1

alisertib = compound: COc1cc(Nc2ncc3c(n2)-c2ccc(Cl)cc2C(c2c(F)cccc2OC)=NC3)ccc1C(=O)O [alisertib]
Outline: as §1

[4] = compound: COc1cc2nc(-c3cc(F)ccc3O)nc(N[C@@H]3CNC[C@H]3C(C)(C)O)c2cc1OC
Outline: as §1

gefitinib = compound: COc1cc2ncnc(Nc3ccc(F)c(Cl)c3)c2cc1OCCCN1CCOCC1 [gefitinib]
Outline: as §1

lapatinib = compound: CS(=O)(=O)CCNCc1ccc(-c2ccc3ncnc(Nc4ccc(OCc5cccc(F)c5)c(Cl)c4)c3c2)o1 [lapatinib]
Outline: as §1

pictilisib = compound: CS(=O)(=O)N1CCN(Cc2cc3nc(-c4cccc5[nH]ncc45)nc(N4CCOCC4)c3s2)CC1 [pictilisib]
Outline: as §1

crizotinib = compound: C[C@@H](Oc1cc(-c2cnn(C3CCNCC3)c2)cnc1N)c1c(Cl)ccc(F)c1Cl [crizotinib]
Outline: as §1

[5] = compound: C[C@H](C1=CC=C(C=C1)C(=O)NC2=C3C=CNC3=NC=C2)N
Outline: as §1

duvelisib = compound: C[C@H](Nc1ncnc2nc[nH]c12)c1cc2cccc(Cl)c2c(=O)n1-c1ccccc1 [duvelisib]
Outline: as §1

gandotinib = compound: Cc1cc(Nc2cc(CN3CCOCC3)c3nc(C)c(Cc4ccc(Cl)cc4F)n3n2)n[nH]1 [gandotinib]
Outline: as §1

tozasertib = compound: Cc1cc(Nc2cc(N3CCN(C)CC3)nc(Sc3ccc(NC(=O)C4CC4)cc3)n2)n[nH]1 [tozasertib]
Outline: as §1

doramapimod = compound: Cc1ccc(-n2nc(C(C)(C)C)cc2NC(=O)Nc2ccc(OCCN3CCOCC3)c3ccccc23)cc1 [doramapimod]
Outline: as §1

bafetinib = compound: Cc1ccc(NC(=O)c2ccc(CN3CC[C@H](N(C)C)C3)c(C(F)(F)F)c2)cc1Nc1nccc(-c2cncnc2)n1 [bafetinib]
Outline: as §1

[6] = compound: Cc1cccc(CC(=O)N2CCc3c2ccc(-c2cn(C)c4ncnc(N)c24)c3F)n1
Outline: as §1

Target | log2 fold change (alvocidib) | log2 fold change (Tubastatin A) | log2 fold change [1] | log2 fold change (defactinib) | log2 fold change [2] | log2 fold change (encorafenib) | log2 fold change [3] | log2 fold change (alisertib) | log2 fold change [4] | log2 fold change (gefitinib) | log2 fold change (lapatinib) | log2 fold change (pictilisib) | log2 fold change (crizotinib) | log2 fold change [5] | log2 fold change (duvelisib) | log2 fold change (gandotinib) | log2 fold change (tozasertib) | log2 fold change (doramapimod) | log2 fold change (bafetinib) | log2 fold change [6]
ARL2BP (UniProt Q9Y2Y0) | inactive: -0.022 | inactive: 0.018 | inactive: 0.029 | inactive: -0.036 | inactive: 0.052 | inactive: 0.01 | inactive: -0.048 | inactive: -0.019 | inactive: -0.024 | inactive: 0.007 | inactive: 0.003 | inactive: -0.001 | inactive: -0.103 | inactive: -0.123 | inactive: -0.048 | inactive: -0.035 | inactive: -0.02 | inactive: 0.073 | inactive: -0.035 | inactive: 0.099
ARID4B (UniProt Q4LE39) | inactive: 0.003 | inactive: 0.03 | inactive: 0.011 | inactive: -0.007 | inactive: 0.03 | inactive: -0.009 | inactive: 0.008 | inactive: 0.005 | inactive: 0.002 | inactive: 0.026 | inactive: -0.023 | inactive: -0.001 | inactive: 0.024 | inactive: 0.025 | inactive: 0.001 | inactive: -0.003 | inactive: -0.062 | inactive: 0.022 | inactive: 0.002 | inactive: 0.01
ARFRP1 (UniProt Q13795) | inactive: -0.037 | inactive: 0.05 | inactive: 0.064 | inactive: -0.031 | inactive: 0.122 | inactive: 0.013 | inactive: 0.061 | inactive: 0.07 | inactive: 0.028 | inactive: 0.006 | inactive: 0.025 | inactive: -0.023 | inactive: 0.031 | inactive: 0.036 | inactive: -0.033 | inactive: 0.002 | inactive: 0.182 | inactive: 0.023 | inactive: 0.036 | inactive: 0.009
ARMC6 (UniProt Q6NXE6) | inactive: 0 | inactive: -0.171 | inactive: 0 | inactive: -0.003 | inactive: -0.103 | inactive: 0.037 | active: 0.234 | inactive: 0.005 | inactive: -0.014 | inactive: 0.041 | inactive: 0 | inactive: -0.015 | inactive: -0.022 | inactive: 0.012 | inactive: -0.027 | inactive: -0.067 | inactive: 0.024 | inactive: 0 | inactive: -0.016 | inactive: -0.009
ARSA (UniProt P15289) | inactive: 0 | inactive: -0.174 | inactive: -0.05 | inactive: 0.035 | inactive: 0.058 | inactive: 0.016 | inactive: 0.135 | inactive: -0.148 | inactive: 0.039 | inactive: 0.102 | inactive: 0.016 | inactive: -0.018 | inactive: -0.002 | inactive: -0.04 | inactive: 0.017 | inactive: 0.055 | inactive: 0.01 | inactive: 0.067 | inactive: -0.013 | inactive: -0.041
AP5Z1 (UniProt O43299) | inactive: -0.015 | inactive: -0.032 | inactive: 0.037 | inactive: -0.065 | inactive: 0.043 | inactive: -0.012 | inactive: 0.014 | inactive: -0.02 | inactive: 0.077 | inactive: 0.005 | inactive: -0.097 | inactive: -0.037 | inactive: -0.039 | inactive: -0.104 | inactive: 0.015 | inactive: 0.185 | inactive: -0.022 | inactive: -0.004 | inactive: 0.031 | inactive: 0.186
ARHGAP21 (UniProt Q5T5U3) | inactive: 0.032 | inactive: 0.008 | inactive: 0.03 | inactive: 0.015 | inactive: 0.056 | inactive: 0.079 | inactive: 0.101 | inactive: -0.023 | inactive: -0.007 | inactive: -0.095 | inactive: 0.081 | inactive: -0.116 | inactive: -0.073 | inactive: 0.071 | inactive: -0.007 | inactive: 0.102 | inactive: -0.092 | inactive: 0.013 | inactive: -0.133 | inactive: 0.053
ARMC8 (UniProt Q8IUR7) | inactive: 0.019 | inactive: -0.061 | inactive: 0.014 | inactive: 0.007 | inactive: -0.005 | inactive: 0.01 | inactive: 0.003 | inactive: 0.011 | inactive: 0.025 | inactive: -0.006 | inactive: -0.025 | inactive: -0.012 | inactive: 0.005 | inactive: -0.024 | inactive: -0.013 | inactive: -0.007 | inactive: -0.001 | inactive: -0.023 | inactive: -0.034 | inactive: -0.005
